Here are results for six molecules from article PMC10279719.

Results are given in words; binding and its absence hold for the method and conditions named. For some of these results: In cells and extracts the contact can be indirect. Some entries that bind do so weakly or less than the wild type. For some of these results: Tags and fused reporters may be left off the sequences shown.

Assay [1] addresses T1, 14-3-3ε (human), P62258.
T1 chain: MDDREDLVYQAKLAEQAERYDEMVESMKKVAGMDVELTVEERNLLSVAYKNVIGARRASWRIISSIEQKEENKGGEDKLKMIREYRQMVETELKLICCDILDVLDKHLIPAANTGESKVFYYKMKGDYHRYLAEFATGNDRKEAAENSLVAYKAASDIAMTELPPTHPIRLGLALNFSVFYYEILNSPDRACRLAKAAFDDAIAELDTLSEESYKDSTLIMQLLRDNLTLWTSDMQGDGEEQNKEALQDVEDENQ
As to the kind of experiment: crystal structure; 14-3-3ε (10 mg/ml) co-crystallised with 0.5 mM PEAK3^tandem-pS69 peptide, sitting drop, 20 °C, 2 M ammonium sulfate, 0.1 M sodium bicine pH 9.35, 5% MPD; both purified. Conditions: remark: other sources report otherwise.

Assay [2] addresses full length CrkII, dimer (CrkIIFL dimer) (human), P46108. In words: SEC; S75 16/600 profile of the purified CrkII constructs, with SDS-PAGE of fractions; both purified. The following applies: remark: other sources report otherwise.
The target is the same in assay [3]. In words: SEC; S200 10/300, 50 µM purified CrkIIFL dimer or monomer re-run after thawing and after 45 h at 4 °C; 20 mM HEPES pH 7.5, 150 mM NaCl, 1 mM TCEP; both purified. Conditions: remark: other sources report otherwise.
The target in assay [4] is T2, HA-tagged PEAK3FL WT (human), Q6ZS72.
T2 chain: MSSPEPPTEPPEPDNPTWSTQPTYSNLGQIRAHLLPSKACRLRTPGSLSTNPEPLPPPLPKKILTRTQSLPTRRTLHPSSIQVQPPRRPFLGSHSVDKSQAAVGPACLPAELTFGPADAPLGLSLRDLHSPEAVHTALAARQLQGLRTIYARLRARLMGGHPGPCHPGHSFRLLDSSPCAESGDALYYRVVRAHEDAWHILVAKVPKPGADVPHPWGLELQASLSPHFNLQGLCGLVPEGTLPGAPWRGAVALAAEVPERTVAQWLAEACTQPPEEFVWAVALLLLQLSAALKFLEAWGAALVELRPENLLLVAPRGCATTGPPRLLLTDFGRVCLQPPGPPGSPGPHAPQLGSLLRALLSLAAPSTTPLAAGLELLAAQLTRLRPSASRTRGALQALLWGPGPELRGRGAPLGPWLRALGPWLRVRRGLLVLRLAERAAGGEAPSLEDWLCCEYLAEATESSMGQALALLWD
As to the kind of experiment: co-IP; anti-HA agarose IP from lysates of HEK293 cells expressing HA-PEAK3FL WT or mutants (alone or with Flag-PEAK3FL WT), Western blot. The following applies: remark: other sources report otherwise.

Assay [5] deals with T3, HA-tagged PEAK3^FL WT (human), Q6ZS72.
T3 chain: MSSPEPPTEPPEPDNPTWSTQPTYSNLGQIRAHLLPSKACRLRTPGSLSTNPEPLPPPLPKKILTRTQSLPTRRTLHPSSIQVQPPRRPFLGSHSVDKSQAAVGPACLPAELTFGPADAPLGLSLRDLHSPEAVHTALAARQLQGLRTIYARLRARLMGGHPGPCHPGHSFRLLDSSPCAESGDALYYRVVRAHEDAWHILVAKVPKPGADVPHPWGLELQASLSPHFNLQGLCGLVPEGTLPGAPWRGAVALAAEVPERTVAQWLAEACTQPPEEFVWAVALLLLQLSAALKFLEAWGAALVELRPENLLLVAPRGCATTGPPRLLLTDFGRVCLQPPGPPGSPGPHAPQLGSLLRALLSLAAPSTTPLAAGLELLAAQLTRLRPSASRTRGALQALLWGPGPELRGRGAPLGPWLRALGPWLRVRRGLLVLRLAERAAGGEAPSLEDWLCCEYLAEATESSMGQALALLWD
As to the kind of experiment: co-IP; HEK293 cells transfected with HA-PEAK3^FL forms (alone or with Flag-PEAK3^FL WT), lysates on anti-HA agarose at 4 °C overnight, Western blot. Conditions: remark: other sources report otherwise.

Assay [6] deals with T4, HA-tagged PEAK3FL WT (human) (UniProt Q6ZS72).
T4 sequence: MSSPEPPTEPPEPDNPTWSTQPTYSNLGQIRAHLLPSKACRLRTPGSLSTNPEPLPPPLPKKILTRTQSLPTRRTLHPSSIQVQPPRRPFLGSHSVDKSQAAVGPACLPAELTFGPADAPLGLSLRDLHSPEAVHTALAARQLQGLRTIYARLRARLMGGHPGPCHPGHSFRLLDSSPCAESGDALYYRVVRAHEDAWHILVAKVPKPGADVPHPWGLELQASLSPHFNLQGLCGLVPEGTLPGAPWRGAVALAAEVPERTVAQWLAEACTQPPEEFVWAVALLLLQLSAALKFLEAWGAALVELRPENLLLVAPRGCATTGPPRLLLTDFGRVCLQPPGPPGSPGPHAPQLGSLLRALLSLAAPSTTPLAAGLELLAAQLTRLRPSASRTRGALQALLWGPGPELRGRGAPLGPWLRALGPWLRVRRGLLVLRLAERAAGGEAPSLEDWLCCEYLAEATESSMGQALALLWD
In words: co-IP; anti-HA agarose IP from lysates of HEK293 cells expressing HA-PEAK3FL WT or mutants (alone or with Flag-PEAK3FL WT), Western blot.

The target in assay [7] is T5, HA-tagged PEAK3^FL-L146E (human) (UniProt Q6ZS72).
T5 sequence: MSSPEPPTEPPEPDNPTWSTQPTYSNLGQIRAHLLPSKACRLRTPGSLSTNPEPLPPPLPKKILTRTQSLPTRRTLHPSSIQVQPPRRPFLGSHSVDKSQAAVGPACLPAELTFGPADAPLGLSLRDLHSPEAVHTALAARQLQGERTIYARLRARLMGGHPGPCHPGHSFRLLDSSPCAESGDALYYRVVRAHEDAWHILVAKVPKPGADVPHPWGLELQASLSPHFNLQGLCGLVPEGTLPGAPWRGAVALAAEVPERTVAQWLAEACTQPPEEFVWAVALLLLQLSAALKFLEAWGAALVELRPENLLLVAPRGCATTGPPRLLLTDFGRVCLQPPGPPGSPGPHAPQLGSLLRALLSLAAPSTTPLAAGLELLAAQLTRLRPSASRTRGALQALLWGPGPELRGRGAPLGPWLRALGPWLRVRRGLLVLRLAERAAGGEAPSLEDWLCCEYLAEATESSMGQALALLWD
As to the kind of experiment: co-IP; HEK293 cells transfected with HA-PEAK3^FL forms (alone or with Flag-PEAK3^FL WT), lysates on anti-HA agarose at 4 °C overnight, Western blot.

For assay [8], the target named is T6, HA-tagged PEAK3^FL-A436E (human) (UniProt Q6ZS72).
T6 sequence: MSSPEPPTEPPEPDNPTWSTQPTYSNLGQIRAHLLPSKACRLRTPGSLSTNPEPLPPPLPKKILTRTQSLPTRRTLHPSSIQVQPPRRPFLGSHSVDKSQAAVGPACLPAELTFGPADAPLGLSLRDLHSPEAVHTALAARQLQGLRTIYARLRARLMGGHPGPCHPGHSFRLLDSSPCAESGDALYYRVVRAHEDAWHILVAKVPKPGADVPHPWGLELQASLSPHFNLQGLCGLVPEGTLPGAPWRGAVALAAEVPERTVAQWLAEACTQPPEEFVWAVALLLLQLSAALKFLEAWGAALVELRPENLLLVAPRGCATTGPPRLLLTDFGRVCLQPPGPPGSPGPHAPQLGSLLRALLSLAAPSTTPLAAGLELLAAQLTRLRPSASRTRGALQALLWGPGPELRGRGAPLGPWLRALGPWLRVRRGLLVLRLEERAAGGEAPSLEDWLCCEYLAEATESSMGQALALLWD
The description is as above.

Assay [9] concerns the target T7, HA-tagged PEAK3^FL-C453E (human) (UniProt Q6ZS72).
T7 sequence: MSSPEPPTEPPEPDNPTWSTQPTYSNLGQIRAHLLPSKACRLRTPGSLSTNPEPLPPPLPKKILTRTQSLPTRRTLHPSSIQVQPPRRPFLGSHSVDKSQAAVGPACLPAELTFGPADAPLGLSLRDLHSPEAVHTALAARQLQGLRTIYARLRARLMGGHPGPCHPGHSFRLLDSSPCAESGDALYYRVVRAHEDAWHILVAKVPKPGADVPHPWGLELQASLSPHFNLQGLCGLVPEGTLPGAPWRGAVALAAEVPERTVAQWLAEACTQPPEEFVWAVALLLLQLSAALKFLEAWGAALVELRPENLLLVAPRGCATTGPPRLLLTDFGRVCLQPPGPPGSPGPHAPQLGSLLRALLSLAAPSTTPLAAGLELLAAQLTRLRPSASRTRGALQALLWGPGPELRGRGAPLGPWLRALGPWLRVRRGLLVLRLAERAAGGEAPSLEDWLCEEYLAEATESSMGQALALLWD
Described as above.

Assay [10] deals with full length PEAK3 from insect cells (PEAK3^FL, S69 phosphorylated) (human) (UniProt Q6ZS72). In words: SEC-MALS; PEAK3^FL:14-3-3ε,ζ complex co-purified from Sf21 cells (120 μg), Superdex 200 Increase 10/300, 20 mM HEPES pH 7.5, 150 mM NaCl, 1 mM TCEP.

B1: 14-3-3ε, P62258-1 1-255 (protein)
chain: MDDREDLVYQAKLAEQAERYDEMVESMKKVAGMDVELTVEERNLLSVAYKNVIGARRASWRIISSIEQKEENKGGEDKLKMIREYRQMVETELKLICCDILDVLDKHLIPAANTGESKVFYYKMKGDYHRYLAEFATGNDRKEAAENSLVAYKAASDIAMTELPPTHPIRLGLALNFSVFYYEILNSPDRACRLAKAAFDDAIAELDTLSEESYKDSTLIMQLLRDNLTLWTSDMQGDGEEQNKEALQDVEDENQ
Turning to B1, the binding result in assay [1] is recorded as “binds”.

B2: full length CrkII, dimer (CrkIIFL dimer), P46108-1 1-304 (natural protein)
chain: MAGNFDSEERSSWYWGRLSRQEAVALLQGQRHGVFLVRDSSTSPGDYVLSVSENSRVSHYIINSSGPRPPVPPSPAQPPPGVSPSRLRIGDQEFDSLPALLEFYKIHYLDTTTLIEPVSRSRQGSGVILRQEEAEYVRALFDFNGNDEEDLPFKKGDILRIRDKPEEQWWNAEDSEGKRGMIPVPYVEKYRPASASVSALIGGNQEGSHPQPLGGPEPGPYAQPSVNTPLPNLQNGPIYARVIQKRVPNAYDKTALALEVGELVKVTKINVSGQWEGECNGKRGHFPFTHVRLLDQQNPDEDFS
modifications: here or on the partner: biotin (EZ-Link NHS-PEG4-Biotin) in the SPR experiment only; biotin (EZ-Link NHS-PEG4-Biotin) in the SPR experiment only
As to B2, the binding entry in [2] and in [3] was “binds” throughout.

B3: endogenous CrkII (HEK293), P46108-1 1-304 (protein)
chain: MAGNFDSEERSSWYWGRLSRQEAVALLQGQRHGVFLVRDSSTSPGDYVLSVSENSRVSHYIINSSGPRPPVPPSPAQPPPGVSPSRLRIGDQEFDSLPALLEFYKIHYLDTTTLIEPVSRSRQGSGVILRQEEAEYVRALFDFNGNDEEDLPFKKGDILRIRDKPEEQWWNAEDSEGKRGMIPVPYVEKYRPASASVSALIGGNQEGSHPQPLGGPEPGPYAQPSVNTPLPNLQNGPIYARVIQKRVPNAYDKTALALEVGELVKVTKINVSGQWEGECNGKRGHFPFTHVRLLDQQNPDEDFS
For B3, the binding result in assay [4] and in [5] was “binds” each time.

B4: Flag-tagged PEAK3FL WT (protein, UniProt Q6ZS72 1-473)
chain: MSSPEPPTEPPEPDNPTWSTQPTYSNLGQIRAHLLPSKACRLRTPGSLSTNPEPLPPPLPKKILTRTQSLPTRRTLHPSSIQVQPPRRPFLGSHSVDKSQAAVGPACLPAELTFGPADAPLGLSLRDLHSPEAVHTALAARQLQGLRTIYARLRARLMGGHPGPCHPGHSFRLLDSSPCAESGDALYYRVVRAHEDAWHILVAKVPKPGADVPHPWGLELQASLSPHFNLQGLCGLVPEGTLPGAPWRGAVALAAEVPERTVAQWLAEACTQPPEEFVWAVALLLLQLSAALKFLEAWGAALVELRPENLLLVAPRGCATTGPPRLLLTDFGRVCLQPPGPPGSPGPHAPQLGSLLRALLSLAAPSTTPLAAGLELLAAQLTRLRPSASRTRGALQALLWGPGPELRGRGAPLGPWLRALGPWLRVRRGLLVLRLAERAAGGEAPSLEDWLCCEYLAEATESSMGQALALLWD
Regarding B4, in [6], the binding entry is “binds”.

B5: Flag-tagged PEAK3^FL WT (protein, UniProt Q6ZS72 1-473)
chain: MSSPEPPTEPPEPDNPTWSTQPTYSNLGQIRAHLLPSKACRLRTPGSLSTNPEPLPPPLPKKILTRTQSLPTRRTLHPSSIQVQPPRRPFLGSHSVDKSQAAVGPACLPAELTFGPADAPLGLSLRDLHSPEAVHTALAARQLQGLRTIYARLRARLMGGHPGPCHPGHSFRLLDSSPCAESGDALYYRVVRAHEDAWHILVAKVPKPGADVPHPWGLELQASLSPHFNLQGLCGLVPEGTLPGAPWRGAVALAAEVPERTVAQWLAEACTQPPEEFVWAVALLLLQLSAALKFLEAWGAALVELRPENLLLVAPRGCATTGPPRLLLTDFGRVCLQPPGPPGSPGPHAPQLGSLLRALLSLAAPSTTPLAAGLELLAAQLTRLRPSASRTRGALQALLWGPGPELRGRGAPLGPWLRALGPWLRVRRGLLVLRLAERAAGGEAPSLEDWLCCEYLAEATESSMGQALALLWD
Regarding B5, the binding result in assay [7], in assay [8] and in assay [9] was “no binding” each time.

B6: full length PEAK3 from insect cells (PEAK3^FL, S69 phosphorylated) (protein, UniProt Q6ZS72 1-473)
chain: MSSPEPPTEPPEPDNPTWSTQPTYSNLGQIRAHLLPSKACRLRTPGSLSTNPEPLPPPLPKKILTRTQSLPTRRTLHPSSIQVQPPRRPFLGSHSVDKSQAAVGPACLPAELTFGPADAPLGLSLRDLHSPEAVHTALAARQLQGLRTIYARLRARLMGGHPGPCHPGHSFRLLDSSPCAESGDALYYRVVRAHEDAWHILVAKVPKPGADVPHPWGLELQASLSPHFNLQGLCGLVPEGTLPGAPWRGAVALAAEVPERTVAQWLAEACTQPPEEFVWAVALLLLQLSAALKFLEAWGAALVELRPENLLLVAPRGCATTGPPRLLLTDFGRVCLQPPGPPGSPGPHAPQLGSLLRALLSLAAPSTTPLAAGLELLAAQLTRLRPSASRTRGALQALLWGPGPELRGRGAPLGPWLRALGPWLRVRRGLLVLRLAERAAGGEAPSLEDWLCCEYLAEATESSMGQALALLWD
modifications: phosphoserine at 69; biotin (EZ-Link NHS-PEG4-Biotin) where immobilised for SPR
Turning to B6, the binding entry in assay [10] is “binds”.
